From the supplement of paper PMC4604168 (melanoma cell lines)
This is one part of the list. Repeats are few or missing, and single values can be far off.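 Imaging used 1,536-well plates; nuclei positive for cleaved PARP by antibody were divided by total DNA-stained nuclei to yield the apoptosis fraction. Doses for screening kept most cells viable, and cell lines differ markedly in resting and induced cleaved-PARP levels.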

Legend:
Test in all cases: cleaved PARP positive nuclei fraction relative to DMSO control; melanoma cells; higher = more apoptosis
Conditions in all cases: library dose: low library concentration; 72 h
[1] = test system: WM115
[2] = test system: WM1716
[3] = test system: WM1745
[4] = test system: WM3526
[5] = test system: WM3619
[6] = test system: WM451Lu

| Compound | cleaved PARP positive nuclei fraction [1] [%] | cleaved PARP positive nuclei fraction [2] [%] | cleaved PARP positive nuclei fraction [3] [%] | cleaved PARP positive nuclei fraction [4] [%] | cleaved PARP positive nuclei fraction [5] [%] | cleaved PARP positive nuclei fraction [6] [%] |
| --- | --- | --- | --- | --- | --- | --- |
| O=C(Nc1cc(C(F)(F)F)cc(C(F)(F)F)c1)c1cc(Cl)ccc1O + CC(C)C[C@H](NC(=O)[C@H](Cc1ccccc1)NC(=O)c1cnccn1)B(O)O [Bortezomib] (first compound 0.016 µM, partner dose 0.001 µM) | 72.5 | 115 | 124 | 39.3 | 186 | 104 |
| N#CC[C@H](C1CCCC1)n1cc(-c2ncnc3[nH]ccc23)cn1 [ruxolitinib] + CCN(CC)CCCCNc1ncc2cc(-c3cc(OC)cc(OC)c3)c(NC(=O)NC(C)(C)C)nc2n1 [PD173074] (first compound 1 µM, partner dose 0.1 µM) | 63.2 | 21.2 | 83.9 | 45.1 | 84.4 | 57.5 |
| Cc1cn(-c2cc(NC(=O)c3ccc(C)c(Nc4nccc(-c5cccnc5)n4)c3)cc(C(F)(F)F)c2)cn1 [nilotinib] + NC1(c2ccc(-c3nc4ccn5c(=O)[nH]nc5c4cc3-c3ccccc3)cc2)CCC1 [MK2206] (first compound 0.2 µM, partner dose 0.4 µM) | 161 | 173 | 101 | 25.9 | 97.3 | 43.4 |
| O=c1[nH]nc(Sc2ncc([N+](=O)[O-])s2)n1-c1ccc2c(c1)OCCO2 + CC(C)C[C@H](NC(=O)[C@H](Cc1ccccc1)NC(=O)c1cnccn1)B(O)O [Bortezomib] (first compound 0.2 µM, partner dose 0.001 µM) | 55.2 | 71.7 | 107 | 256 | 136 | 95.9 |
| Cc1cn(-c2cc(NC(=O)c3ccc(C)c(Nc4nccc(-c5cccnc5)n4)c3)cc(C(F)(F)F)c2)cn1 [nilotinib] + C[C@@H](Oc1cc(-c2cnn(C3CCNCC3)c2)cnc1N)c1c(Cl)ccc(F)c1Cl [Crizotinib] (first compound 0.2 µM, partner dose 0.2 µM) | 106 | 63.9 | 1020 | 25.3 | 106 | 104 |
| CCCCCCCCCCCCCCCCCCOP(=O)([O-])OC1CC[N+](C)(C)CC1 [Perifosine] + C[C@@H]1CCN(C(=O)CC#N)C[C@@H]1N(C)c1ncnc2[nH]ccc12 [CP690550] (first compound 0.4 µM, partner dose 1 µM) | 45.8 | 167 | 118 | 37.1 | 102 | 169 |
| Cc1cn(-c2cc(NC(=O)c3ccc(C)c(Nc4nccc(-c5cccnc5)n4)c3)cc(C(F)(F)F)c2)cn1 [nilotinib] + NCC(=O)Nc1ccc(-n2nc(C(F)(F)F)cc2-c2ccc3c(ccc4ccccc43)c2)cc1 [OSU03012] (first compound 0.2 µM, partner dose 1 µM) | 116 | 97.6 | 126 | 93.2 | 80.2 | 182 |
| Cc1cn(-c2cc(NC(=O)c3ccc(C)c(Nc4nccc(-c5cccnc5)n4)c3)cc(C(F)(F)F)c2)cn1 [nilotinib] + C[C@]1(O)C[C@@H](c2nc(-c3ccc4ccc(-c5ccccc5)nc4c3)c3c(N)nccn32)C1 [OSI906] (first compound 0.2 µM, partner dose 0.4 µM) | 164 | 83 | 164 | 63.8 | 101 | 62.5 |
| Cc1cc(Nc2cc(N3CCN(C)CC3)nc(Sc3ccc(NC(=O)C4CC4)cc3)n2)n[nH]1 [Tozasertib] + Nc1ncn([C@H]2C[C@H](O)[C@@H](CO)O2)c(=O)n1 [decitabine] (first compound 0.006 µM, partner dose 0.1 µM) | 294 | 95.7 | 124 | 148 | 86.2 | 37.2 |
| O=C(Nc1cc(C(F)(F)F)cc(C(F)(F)F)c1)c1cc(Cl)ccc1O + COCC[n+]1c2c(n(Cc3cnccn3)c1C)C(=O)c1ccccc1C2=O [YM155] (first compound 0.016 µM, partner dose 0.0004 µM) | 51.6 | 99.3 | 92.2 | 40.1 | 95.7 | 242 |
| Cc1ccc(Nc2nccc(N(C)c3ccc4c(C)n(C)nc4c3)n2)cc1S(N)(=O)=O [Pazopanib] + Cc1ccc(NC(=O)c2cccc(N(C)C)c2)cc1NC(=O)c1ccc(O)cc1 [ZM336372] (first compound 0.4 µM, partner dose 2 µM) | 97.3 | 140 | 114 | 56.1 | 82.8 | 136 |
| CCCCCCCCCCCCCCCCCCOP(=O)([O-])OC1CC[N+](C)(C)CC1 [Perifosine] + Cn1c(Nc2ccc(C(F)(F)F)cc2)nc2cc(Oc3ccnc(-c4ncc(C(F)(F)F)[nH]4)c3)ccc21 [CHIR265] (first compound 0.4 µM, partner dose 0.08 µM) | 399 | 41.4 | 146 | 60.4 | 128 | 52.3 |

For reference, some entries already given.

| Compound | cleaved PARP positive nuclei fraction [1] [%] | cleaved PARP positive nuclei fraction [2] [%] | cleaved PARP positive nuclei fraction [3] [%] | cleaved PARP positive nuclei fraction [4] [%] | cleaved PARP positive nuclei fraction [5] [%] | cleaved PARP positive nuclei fraction [6] [%] |
| --- | --- | --- | --- | --- | --- | --- |
| N#CC[C@H](C1CCCC1)n1cc(-c2ncnc3[nH]ccc23)cn1 [ruxolitinib] + CCN(CC)CCCCNc1ncc2cc(-c3cc(OC)cc(OC)c3)c(NC(=O)NC(C)(C)C)nc2n1 [PD173074] (first compound 1 µM, partner dose 0.1 µM) | 63.2 | 21.2 | 83.9 | 45.1 | 84.4 | 57.5 |
| Cc1cn(-c2cc(NC(=O)c3ccc(C)c(Nc4nccc(-c5cccnc5)n4)c3)cc(C(F)(F)F)c2)cn1 [nilotinib] + NC1(c2ccc(-c3nc4ccn5c(=O)[nH]nc5c4cc3-c3ccccc3)cc2)CCC1 [MK2206] (first compound 0.2 µM, partner dose 0.4 µM) | 161 | 173 | 101 | 25.9 | 97.3 | 43.4 |
